These are yes or no findings as the source states them, for the method shown. In cells and extracts the contact can be indirect. Some results given as binding are weak or reduced against the parent protein; the word gives no strength. Tags and fused reporters may be left off the sequences shown.
Target: T1, signal peptide sequence-deleted mouse LOTUS having streptavidin-binding protein (SBP)- and FLAG-tag at the N terminus (SBP-FLAG-LOTUS), overexpressed in COS7 cells (mouse) (UniProt Q8R555)
T1 sequence: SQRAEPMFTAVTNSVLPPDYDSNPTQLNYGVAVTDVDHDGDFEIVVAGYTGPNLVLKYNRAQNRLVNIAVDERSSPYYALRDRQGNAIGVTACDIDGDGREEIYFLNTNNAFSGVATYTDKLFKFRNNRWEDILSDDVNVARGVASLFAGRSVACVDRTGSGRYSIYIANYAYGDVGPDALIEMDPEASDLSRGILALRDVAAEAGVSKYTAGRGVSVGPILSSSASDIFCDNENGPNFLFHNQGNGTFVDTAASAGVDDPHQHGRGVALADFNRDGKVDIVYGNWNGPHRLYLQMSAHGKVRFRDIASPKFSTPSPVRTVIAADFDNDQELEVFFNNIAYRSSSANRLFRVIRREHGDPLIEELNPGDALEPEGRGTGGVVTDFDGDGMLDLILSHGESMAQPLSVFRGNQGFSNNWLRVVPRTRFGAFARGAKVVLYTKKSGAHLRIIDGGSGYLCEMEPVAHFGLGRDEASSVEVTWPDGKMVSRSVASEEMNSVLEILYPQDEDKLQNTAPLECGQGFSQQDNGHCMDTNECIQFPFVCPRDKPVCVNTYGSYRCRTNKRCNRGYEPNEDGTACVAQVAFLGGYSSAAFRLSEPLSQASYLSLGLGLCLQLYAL
Experiment: pull-down; lysates (1% Nonidet P-40, 137 mM NaCl, 20 mM Tris-Cl pH 7.5) of COS7 cells overexpressing SBP-FLAG-LOTUS and/or Ten-4-HA applied to streptavidin resins; western blotting with anti-Ten-4 and anti-LOTUS antibodies

Amino acid sequences for entries named in this document (tags omitted). A change or cut given only in a name is not applied to a line headed by its entry. Chains listed by the source or under a name are the forms on record and can include a tag or linker.
mouse Ten-4 tagging HA (Ten-4-HA) (Q3UHK6-4, form named): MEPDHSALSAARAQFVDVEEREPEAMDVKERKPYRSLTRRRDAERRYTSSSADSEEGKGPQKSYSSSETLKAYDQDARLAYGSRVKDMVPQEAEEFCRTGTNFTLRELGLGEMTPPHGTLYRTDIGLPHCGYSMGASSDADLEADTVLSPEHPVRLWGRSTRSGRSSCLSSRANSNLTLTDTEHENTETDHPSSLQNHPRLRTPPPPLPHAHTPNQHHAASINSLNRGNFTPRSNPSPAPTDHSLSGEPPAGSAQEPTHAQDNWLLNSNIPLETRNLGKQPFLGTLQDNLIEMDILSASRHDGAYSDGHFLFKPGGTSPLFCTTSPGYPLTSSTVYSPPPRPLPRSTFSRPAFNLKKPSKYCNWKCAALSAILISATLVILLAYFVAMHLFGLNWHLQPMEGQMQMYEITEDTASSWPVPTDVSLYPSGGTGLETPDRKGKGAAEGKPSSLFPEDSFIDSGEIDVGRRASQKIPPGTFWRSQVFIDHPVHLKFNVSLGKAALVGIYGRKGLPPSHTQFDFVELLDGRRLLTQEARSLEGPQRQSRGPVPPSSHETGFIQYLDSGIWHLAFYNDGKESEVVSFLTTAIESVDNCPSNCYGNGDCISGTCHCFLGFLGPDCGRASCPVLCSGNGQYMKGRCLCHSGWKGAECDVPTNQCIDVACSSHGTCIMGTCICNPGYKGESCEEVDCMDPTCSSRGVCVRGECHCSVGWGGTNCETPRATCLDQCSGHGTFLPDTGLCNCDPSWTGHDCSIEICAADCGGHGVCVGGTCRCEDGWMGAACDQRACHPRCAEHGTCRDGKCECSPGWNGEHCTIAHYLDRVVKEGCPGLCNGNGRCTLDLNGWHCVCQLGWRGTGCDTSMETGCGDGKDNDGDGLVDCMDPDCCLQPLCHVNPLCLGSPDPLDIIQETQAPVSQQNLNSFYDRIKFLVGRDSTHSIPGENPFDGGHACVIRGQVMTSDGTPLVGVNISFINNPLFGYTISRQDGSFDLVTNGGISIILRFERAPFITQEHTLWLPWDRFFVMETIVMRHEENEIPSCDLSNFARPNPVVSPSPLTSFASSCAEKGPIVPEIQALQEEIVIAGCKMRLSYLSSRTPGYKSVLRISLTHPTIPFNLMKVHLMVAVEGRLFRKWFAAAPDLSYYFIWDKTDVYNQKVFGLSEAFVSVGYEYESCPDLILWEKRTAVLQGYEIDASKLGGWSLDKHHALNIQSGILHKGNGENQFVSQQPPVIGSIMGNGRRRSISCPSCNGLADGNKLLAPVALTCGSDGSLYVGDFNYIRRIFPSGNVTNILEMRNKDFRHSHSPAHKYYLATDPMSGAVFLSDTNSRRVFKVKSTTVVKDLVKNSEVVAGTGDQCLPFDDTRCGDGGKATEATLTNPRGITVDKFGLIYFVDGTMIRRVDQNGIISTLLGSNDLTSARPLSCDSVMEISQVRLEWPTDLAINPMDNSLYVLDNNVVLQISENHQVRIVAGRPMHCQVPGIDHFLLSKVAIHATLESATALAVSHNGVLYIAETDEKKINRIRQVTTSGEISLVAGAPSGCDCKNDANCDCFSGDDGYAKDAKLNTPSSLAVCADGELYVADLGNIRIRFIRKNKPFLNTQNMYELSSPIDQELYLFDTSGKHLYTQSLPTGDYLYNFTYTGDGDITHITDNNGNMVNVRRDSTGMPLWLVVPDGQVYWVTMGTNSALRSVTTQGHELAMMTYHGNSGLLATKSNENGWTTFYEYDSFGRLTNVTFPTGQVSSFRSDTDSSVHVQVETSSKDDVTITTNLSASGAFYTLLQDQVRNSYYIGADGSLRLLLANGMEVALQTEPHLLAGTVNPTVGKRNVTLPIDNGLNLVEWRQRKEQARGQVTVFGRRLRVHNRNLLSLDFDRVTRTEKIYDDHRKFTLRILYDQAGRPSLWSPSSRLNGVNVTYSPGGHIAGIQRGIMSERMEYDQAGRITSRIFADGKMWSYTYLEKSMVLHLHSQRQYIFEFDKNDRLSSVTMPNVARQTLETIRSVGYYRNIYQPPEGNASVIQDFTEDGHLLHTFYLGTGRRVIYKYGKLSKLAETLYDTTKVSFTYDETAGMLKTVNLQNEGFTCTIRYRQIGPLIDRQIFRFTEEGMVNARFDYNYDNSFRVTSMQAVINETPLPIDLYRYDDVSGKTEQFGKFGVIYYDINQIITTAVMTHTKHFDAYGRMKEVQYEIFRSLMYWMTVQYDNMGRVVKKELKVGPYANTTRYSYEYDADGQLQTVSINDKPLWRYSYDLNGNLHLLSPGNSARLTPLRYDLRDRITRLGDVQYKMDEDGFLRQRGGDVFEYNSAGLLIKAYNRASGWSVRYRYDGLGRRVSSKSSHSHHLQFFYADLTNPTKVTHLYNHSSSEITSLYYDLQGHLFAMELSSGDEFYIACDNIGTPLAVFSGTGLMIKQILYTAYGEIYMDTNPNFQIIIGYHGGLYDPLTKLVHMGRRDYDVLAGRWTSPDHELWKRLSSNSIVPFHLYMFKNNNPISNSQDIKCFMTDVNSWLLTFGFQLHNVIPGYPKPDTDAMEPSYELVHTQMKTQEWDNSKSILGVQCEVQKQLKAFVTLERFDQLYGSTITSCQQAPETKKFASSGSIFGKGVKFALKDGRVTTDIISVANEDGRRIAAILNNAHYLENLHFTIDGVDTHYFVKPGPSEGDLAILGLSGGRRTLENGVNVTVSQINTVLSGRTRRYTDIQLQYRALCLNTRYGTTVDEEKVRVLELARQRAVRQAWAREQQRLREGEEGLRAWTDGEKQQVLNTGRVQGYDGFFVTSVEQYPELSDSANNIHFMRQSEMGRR

binding: binds
Substance: mouse Ten-4 tagging HA (Ten-4-HA) (from UniProt Q3UHK6-4 1-2796)

— paper PMC11352776
